In assay [1] the target is CD8 co-receptor (mouse CD8αβ) (mouse (endogenous in thymocytes)) (UniProt P01731+P10300). The assay is described as follows: co-IP; live total thymocytes (2-3 x 10^7) of Lck-variant mice stained with biotinylated anti-CD4 (GK1.5) or anti-CD8β (53-5.8), lysed in 1% lauryl-β-D-maltoside, 30 mM Tris pH 7.4, 120 mM NaCl, 2 mM KCl, 10% glycerol; Streptavidin Mag Sepharose 2 h at 4 °C; immunoblot with anti-LCK (3A5) and anti-CD4 or anti-CD8α. In general terms: In western blotting, separated proteins are transferred to a membrane and probed.

By UniProt entry, the sequences of proteins in these tests, tags left out. Where a name states a change or a piece, a line headed by the entry shows the natural chain unless it says otherwise. Residues count along the entry.
UniProt P01731: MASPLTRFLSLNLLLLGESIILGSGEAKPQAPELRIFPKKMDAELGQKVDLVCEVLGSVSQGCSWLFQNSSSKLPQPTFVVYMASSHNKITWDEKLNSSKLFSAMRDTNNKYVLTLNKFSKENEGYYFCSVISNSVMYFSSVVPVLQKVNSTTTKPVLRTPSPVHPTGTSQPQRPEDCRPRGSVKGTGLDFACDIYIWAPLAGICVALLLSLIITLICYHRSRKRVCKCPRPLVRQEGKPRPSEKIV
UniProt P10300: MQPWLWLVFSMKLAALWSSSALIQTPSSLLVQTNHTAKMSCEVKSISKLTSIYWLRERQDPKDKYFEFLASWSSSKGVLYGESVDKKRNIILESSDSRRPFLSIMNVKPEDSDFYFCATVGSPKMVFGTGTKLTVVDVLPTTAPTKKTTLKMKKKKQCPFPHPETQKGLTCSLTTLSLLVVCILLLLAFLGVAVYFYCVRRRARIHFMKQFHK
UniProt P06332, residues 27-457: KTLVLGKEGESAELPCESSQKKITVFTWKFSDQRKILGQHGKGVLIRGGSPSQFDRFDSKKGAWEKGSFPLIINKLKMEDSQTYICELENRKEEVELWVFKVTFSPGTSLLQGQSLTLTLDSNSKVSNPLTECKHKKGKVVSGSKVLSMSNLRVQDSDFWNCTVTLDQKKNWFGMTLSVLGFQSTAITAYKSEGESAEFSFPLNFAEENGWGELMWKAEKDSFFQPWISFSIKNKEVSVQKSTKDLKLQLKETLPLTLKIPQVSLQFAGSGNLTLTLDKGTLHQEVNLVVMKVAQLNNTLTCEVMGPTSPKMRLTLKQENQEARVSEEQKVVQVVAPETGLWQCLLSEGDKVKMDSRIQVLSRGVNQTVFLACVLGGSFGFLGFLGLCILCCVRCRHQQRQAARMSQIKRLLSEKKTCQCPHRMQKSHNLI
UniProt P06240: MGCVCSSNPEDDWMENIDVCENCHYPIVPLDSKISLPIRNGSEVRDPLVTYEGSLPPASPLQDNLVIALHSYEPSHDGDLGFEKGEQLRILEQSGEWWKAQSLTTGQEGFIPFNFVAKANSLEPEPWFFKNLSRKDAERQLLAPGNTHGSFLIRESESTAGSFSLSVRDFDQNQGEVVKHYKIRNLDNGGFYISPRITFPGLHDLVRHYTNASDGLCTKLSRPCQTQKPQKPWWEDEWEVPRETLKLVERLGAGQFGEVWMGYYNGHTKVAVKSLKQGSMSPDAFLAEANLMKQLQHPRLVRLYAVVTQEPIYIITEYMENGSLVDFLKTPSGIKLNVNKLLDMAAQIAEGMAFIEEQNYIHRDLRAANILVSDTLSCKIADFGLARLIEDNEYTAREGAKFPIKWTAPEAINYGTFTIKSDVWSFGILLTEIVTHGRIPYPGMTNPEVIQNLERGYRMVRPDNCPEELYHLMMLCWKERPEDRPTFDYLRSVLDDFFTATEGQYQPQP

In assay [2] the target is CD4 co-receptor (mouse) (mouse (endogenous in thymocytes)) (UniProt P06332). The assay is described as above.

No constants are given. Whether binding was seen depends on the method and setting. In cells and extracts the contact can be indirect. Some entries that bind do so weakly or less than the wild type.

Take “LCK C20A.C23A (mouse, knock-in) (from UniProt P06240 1-509) (enzyme)”: the binding entry in assay [1] and in assay [2] was “no binding” each time.
As to “LCK, wild type (mouse) (from UniProt P06240 1-509) (enzyme)”, the binding result in assay [1] and in assay [2] was “binds” in each case.

These data come from publication PMC9810533.
